Experimental findings from PMC11163988, “Cloning, expression, and purification of an α-carbonic anhydrase from Toxoplasma gondii to unveil its kinetic parameters and anion inhibition profile” (Journal of Enzyme Inhibition and Medicinal Chemistry, 2024) are described below.

By UniProt entry, the sequences of proteins in these tests, tags left out. Residues count along the entry.
UniProt S8F479, 486-829 limits assumed: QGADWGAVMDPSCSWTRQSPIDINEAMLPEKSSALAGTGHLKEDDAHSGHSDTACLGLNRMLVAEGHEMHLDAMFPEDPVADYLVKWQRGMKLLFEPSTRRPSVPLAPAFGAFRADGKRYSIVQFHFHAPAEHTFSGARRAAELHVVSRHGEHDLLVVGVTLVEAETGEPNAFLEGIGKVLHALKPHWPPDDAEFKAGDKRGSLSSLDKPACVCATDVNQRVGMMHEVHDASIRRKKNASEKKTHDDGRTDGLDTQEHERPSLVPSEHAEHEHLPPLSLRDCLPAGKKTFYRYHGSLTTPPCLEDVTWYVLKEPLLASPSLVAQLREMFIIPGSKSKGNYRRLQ

The assay has as its target Tg_CA (Toxoplasma gondii α-CA) (Toxoplasma gondii, UniProt S8F479). Description: biochemical.

One may read the Ki as the equilibrium dissociation constant of an inhibitor or competing ligand from its target. A lower Ki goes with higher affinity. With `CC(=O)Nc1nnc(S(N)(=O)=O)s1` [acetazolamide, 5-acetamido-1,3,4-thiadiazole-2-sulphonamide], the affinity, expressed as Ki, was 0.0457 µM.
